This is an account of results in paper PMC1940015.

Sequences of proteins named here, by UniProt entry; tags and fusion partners are left off.
UniProt Q66H76: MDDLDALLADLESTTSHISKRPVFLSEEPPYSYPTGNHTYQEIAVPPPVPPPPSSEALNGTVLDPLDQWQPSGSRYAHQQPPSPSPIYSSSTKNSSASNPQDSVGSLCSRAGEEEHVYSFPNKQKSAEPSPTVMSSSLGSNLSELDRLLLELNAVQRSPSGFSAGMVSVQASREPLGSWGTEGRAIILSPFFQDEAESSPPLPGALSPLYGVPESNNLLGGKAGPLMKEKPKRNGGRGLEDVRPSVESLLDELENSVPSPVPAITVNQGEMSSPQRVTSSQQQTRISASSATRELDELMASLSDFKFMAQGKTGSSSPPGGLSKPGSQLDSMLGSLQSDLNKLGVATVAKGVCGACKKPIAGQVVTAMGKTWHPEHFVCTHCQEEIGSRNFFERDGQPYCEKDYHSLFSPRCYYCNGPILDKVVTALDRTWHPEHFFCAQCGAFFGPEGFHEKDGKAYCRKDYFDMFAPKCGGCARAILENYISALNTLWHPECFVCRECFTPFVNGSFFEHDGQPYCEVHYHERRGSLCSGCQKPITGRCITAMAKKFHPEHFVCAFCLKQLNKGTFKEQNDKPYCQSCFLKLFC

Residue numbers refer to the chain shown, from its start. Results are given in words; binding and its absence hold for the method and conditions named. In cells and extracts the contact can be indirect. Some binding calls cover weakened binding; strength is not graded here.

The target in one assay is T1, α4S988A (human) (UniProt P13612).
T1 sequence (chain, biotin (cell surface molecules labelled with NHS-LC-Biotin)): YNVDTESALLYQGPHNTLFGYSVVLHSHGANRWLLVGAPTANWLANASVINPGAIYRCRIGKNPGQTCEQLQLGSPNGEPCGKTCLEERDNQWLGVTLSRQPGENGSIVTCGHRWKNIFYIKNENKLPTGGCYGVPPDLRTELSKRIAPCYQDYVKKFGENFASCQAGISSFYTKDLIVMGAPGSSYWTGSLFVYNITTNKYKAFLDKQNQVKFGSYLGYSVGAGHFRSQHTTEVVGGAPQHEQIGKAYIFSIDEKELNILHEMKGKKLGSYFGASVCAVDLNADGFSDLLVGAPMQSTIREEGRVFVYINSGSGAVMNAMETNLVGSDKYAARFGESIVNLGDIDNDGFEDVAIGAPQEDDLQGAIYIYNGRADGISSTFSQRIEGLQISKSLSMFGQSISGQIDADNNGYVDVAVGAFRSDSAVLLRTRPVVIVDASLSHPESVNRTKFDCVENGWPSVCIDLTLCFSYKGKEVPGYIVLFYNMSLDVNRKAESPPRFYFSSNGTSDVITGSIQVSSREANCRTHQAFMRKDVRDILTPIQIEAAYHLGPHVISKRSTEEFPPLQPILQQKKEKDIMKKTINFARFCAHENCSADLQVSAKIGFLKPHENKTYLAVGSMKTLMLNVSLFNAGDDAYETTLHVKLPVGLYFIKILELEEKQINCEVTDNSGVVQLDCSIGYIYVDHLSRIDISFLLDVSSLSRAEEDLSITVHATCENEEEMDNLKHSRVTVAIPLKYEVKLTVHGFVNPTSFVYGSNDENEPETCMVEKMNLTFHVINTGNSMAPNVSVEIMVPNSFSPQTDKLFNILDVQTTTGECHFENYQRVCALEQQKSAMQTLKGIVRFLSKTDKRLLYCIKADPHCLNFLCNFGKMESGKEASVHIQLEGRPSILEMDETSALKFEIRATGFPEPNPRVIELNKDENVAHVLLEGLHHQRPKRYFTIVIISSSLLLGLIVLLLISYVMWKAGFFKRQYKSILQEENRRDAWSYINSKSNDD
Description: co-IP; 1% Triton X-100 lysates of biotin-labelled PC12 cells expressing the α4 constructs; immunoprecipitated overnight at 4°C with anti-human α4 extracellular domain antibody; beads washed with 0.5 M NaCl, 1% NP40 buffer; western blot with anti-paxillin antibody.

Assay [1] concerns the target T2, wild-type human α4 integrin, full length (human) (UniProt P13612).
T2 sequence (chain, biotin (cell surface molecules labelled with NHS-LC-Biotin)): T1 sequence (chain, biotin (cell surface molecules labelled with NHS-LC-Biotin)) with A988S
Described as above.

On to “paxillin (endogenous in PC12 cells) (from UniProt Q66H76 1-586)”, for which the binding result (in the assay with α4S988A (human); in assay [1]) was “binds” throughout.
